Publication PMC11105424
No constants are given. Whether binding was seen depends on the method and setting. For part of these data: In cells and extracts the contact can be indirect. Some entries that bind do so weakly or less than the wild type.

By UniProt entry, the sequences of proteins in these tests, tags left out. Residues count along the entry.
UniProt P48356, residues 22-1162: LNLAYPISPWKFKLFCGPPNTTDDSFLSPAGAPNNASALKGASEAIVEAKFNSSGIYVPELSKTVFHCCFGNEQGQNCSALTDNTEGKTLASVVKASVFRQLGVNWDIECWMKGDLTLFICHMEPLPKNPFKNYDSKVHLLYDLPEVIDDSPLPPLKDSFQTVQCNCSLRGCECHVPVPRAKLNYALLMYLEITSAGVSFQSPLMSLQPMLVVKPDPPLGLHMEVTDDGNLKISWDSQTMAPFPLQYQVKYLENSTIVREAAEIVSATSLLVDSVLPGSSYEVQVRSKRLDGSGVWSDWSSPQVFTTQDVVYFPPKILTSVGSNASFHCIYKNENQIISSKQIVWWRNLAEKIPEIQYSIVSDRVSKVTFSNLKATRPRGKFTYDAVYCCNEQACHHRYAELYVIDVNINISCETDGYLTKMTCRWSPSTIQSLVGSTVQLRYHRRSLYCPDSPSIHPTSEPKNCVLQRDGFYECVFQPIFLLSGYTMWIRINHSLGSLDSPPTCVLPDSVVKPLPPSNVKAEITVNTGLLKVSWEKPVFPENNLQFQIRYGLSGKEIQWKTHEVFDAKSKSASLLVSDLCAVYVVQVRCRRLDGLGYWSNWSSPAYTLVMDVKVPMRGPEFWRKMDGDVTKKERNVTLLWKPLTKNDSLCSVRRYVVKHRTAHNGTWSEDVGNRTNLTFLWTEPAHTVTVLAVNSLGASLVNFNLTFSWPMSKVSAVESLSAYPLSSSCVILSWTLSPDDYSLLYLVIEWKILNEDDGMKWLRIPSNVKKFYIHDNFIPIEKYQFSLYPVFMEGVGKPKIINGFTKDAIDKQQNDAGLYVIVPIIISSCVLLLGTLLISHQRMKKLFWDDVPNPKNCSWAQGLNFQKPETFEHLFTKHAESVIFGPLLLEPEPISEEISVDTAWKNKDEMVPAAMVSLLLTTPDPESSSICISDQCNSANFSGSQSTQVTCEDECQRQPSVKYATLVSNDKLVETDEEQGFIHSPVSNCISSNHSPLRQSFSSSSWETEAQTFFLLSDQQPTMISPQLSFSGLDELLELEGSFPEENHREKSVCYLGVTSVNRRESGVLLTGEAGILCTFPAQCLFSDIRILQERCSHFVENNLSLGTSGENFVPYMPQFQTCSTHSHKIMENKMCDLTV
UniProt P41160, residues 22-167: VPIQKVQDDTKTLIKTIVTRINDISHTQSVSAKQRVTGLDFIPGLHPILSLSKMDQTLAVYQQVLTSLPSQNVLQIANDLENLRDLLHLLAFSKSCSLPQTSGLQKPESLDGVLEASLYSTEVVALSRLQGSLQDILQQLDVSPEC

Key:
[1] = biological target: LR-FLAG (leptin receptor, FLAG-tagged) (UniProt P48356); experiment: co-IP; Hek293T cells co-transfected with tagged EGFR and LR or LR-FATT; lysed 24 h later in modified RIPA buffer; immunoprecipitation with anti-FLAG M2 affinity resin; Western blot with anti-FLAG and anti-E-tag; no ligand
SNAP-EGFR on HeLa cells = SNAP-EGFR on HeLa cells (UniProt P00533); experiment: labelling of cells with fluorescent leptin (microscopy); HeLa cells expressing SNAP-EGFR (SNAP-green) with or without LR, incubated with leptin-d2 (20 nM); only the binder purified
[2] = biological target: LR co-expressed with SNAP-EGFR on HeLa cells (UniProt P48356); experiment: as above

binding [1]	binding (SNAP-EGFR on HeLa cells)	binding [2]	Substance
binds			E-tagged EGFR (epidermal growth factor receptor) (from UniProt P00533 25-1210)
	no binding (tested: 20 nM)	binds	leptin-d2 (leptin labelled with the d2 fluorophore) (from UniProt P41160 22-167) (ligand)
